{"source": "patent US5776859A", "about": "“Sodium channel active novel compounds and related processes and bioassay techniques” (priority 1995, dated 1998)", "origin": "cited, not measured here", "settings": "in the body; conversion to 2,6-xylidine; cited from earlier work"}
{"compound": "CCN(CC)CC(=O)Nc1c(C)cccc1C", "note": "[Lidocaine]", "values": [{"measurement": "metabolism", "value": "converted into an aniline homolog, 2, 6-xylidine"}]}
